Patent US20160272709A1, “ANTI-KIR ANTIBODIES” (The Regents of the University of Michigan, priority 2015, published 2016)
At least one structure is not confirmed: it was looked up by name or label, or the drawing left a doubt.

Tested on: KIRL1 mRNA
Assay: KIRL1 mRNA by RT-PCR in CD4+ T cells of tet-on C57BL6×SJL dnMEK mice receiving dox
Type: in vivo
Settings: vs controls without dox; n=14, p=0.02

Structure (SMILES): C[C@H]1c2cccc(O)c2C(=O)C2=C(O)[C@]3(O)C(=O)C(C(N)=O)=C(O)[C@@H](N(C)C)[C@@H]3[C@@H](O)[C@@H]21 [dox, doxycycline]
- KIRL1 mRNA levels: higher KIRL1 mRNA levels than controls without dox
